This note sets out measurements from the supplement of paper PMC8256030.

Values joined by “and” are separate entries in the source; they are usually repeats but may differ in a detail not shown here. Identical values can stand only once. Counter-ions that a name gives are not always drawn. Some of the results follow. Repeats in this data set agree poorly, so a single value says little.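 HEK293T cells were given each compound shortly before transfection with a reporter in which red mCherry is followed by the SARS-CoV-2 frameshift element and then GFP in the −1 frame, so GFP appears only after frameshifting.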

The test system of this assay is HEK293T. Put plainly: percent viability (nuclei count) relative to control; higher = more viable cells. The settings on record: 10 µM; 24 h.

On to `CC(=O)Nc1ccc(OC(C)=O)cc1` [diacetamate], for which the percent viability came out at 235%.

As to `CNC1Cc2ccccc2N(C)c2ccccc21` (stereo not drawn) [metapramine], the percent viability stood at 114%.

As to `CCC(=O)NS(=O)(=O)c1ccc(-c2c(-c3ccccc3)noc2C)cc1` [parecoxib], the percent viability is 192%.

Regarding `Cc1cc(=O)n(-c2ccccc2)n1C` [Phenazone], the percent viability came out at 227%.

For `CCC(c1ccccc1)c1c(O)c2ccccc2oc1=O` (stereo not drawn) [phenprocoumon], the percent viability was 107%.

For `CCCCN1C[C@H](O)[C@@H](O)[C@H](O)[C@H]1CO` [miglustat], the percent viability was determined as 233%.

On to `CO/N=C/C1=CCCN(C)C1` [milameline], for which the percent viability is 115%.

With `OCC(O)C(O)C(O)C(O)CO` (stereo not drawn), the percent viability was determined as 333%.

Regarding `O=C1C(N2CCCCC2)CCN1c1ccccc1` (stereo not drawn) [felipyrine], the percent viability turned out to be 284%.

As to `CCCCCCOc1nsnc1C1=CCCN(C)C1` [xanomeline], the percent viability was determined as 177%.

With `O=C(NCC1[C@H]2CN(C(=O)OCc3cc(C(F)(F)F)cc(C(F)(F)F)c3)C[C@@H]12)c1ccc2n[nH]nc2c1` (stereo partly drawn), the percent viability was 229%.

Regarding `CN(C)C(=O)C(CC[N@+]1([O-])CC[C@@](O)(c2ccc(Cl)cc2)CC1)(c1ccccc1)c1ccccc1` [loperamide oxide], the percent viability is 165%.

For the compound `NC(=O)C(c1ccccc1)(c1ccccc1)[C@@H]1CCN(CCc2ccc3c(c2)CCO3)C1`, the percent viability worked out at 182%.

`NC(=O)NS(=O)(=O)c1ccc(N)cc1` [sulfacarbamide]: the percent viability amounted to 272%.

Take `CN(C)CCN(Cc1ccccc1)c1nc2ccccc2o1` [oxadimedine]: the percent viability was found to be 228%.

On to `CCCCC[C@H](O)/C=C/[C@@H]1[C@H]2C/C(=C/CCCC(=O)O)O[C@H]2C[C@H]1O` [epoprostenol], for which the percent viability was 154%.

As for `COc1cc([C@@H]2Oc3c(O)cc([C@H]4Oc5cc(O)cc(O)c5C(=O)[C@@H]4O)cc3[C@H]2CO)ccc1O` [silicristin], the percent viability stood at 279%.

As to `COc1ccc(-c2nc3cc(C4=NNC(=O)CC4C)ccc3[nH]2)cc1` (stereo not drawn) [pimobendan], the percent viability was 77.7%.

As to `CCC(=O)c1ccc2c(c1)N(CCCN1CCN(CCO)CC1)c1ccccc1S2` [carfenazine], the percent viability came out at 531%.

With `CC(=O)[C@@]1(O)CC[C@H]2[C@@H]3CCC4=CC(=O)CC[C@]4(C)[C@H]3CC[C@@]21C` [hydroxyprogesterone], the percent viability stood at 187%.

In the case of `NC12CC3CC(CC(C3)C1)C2` [Amantadine·HCl], the percent viability stood at 175%.

`O=c1[nH]cnc2c1ncn2[C@H]1CC[C@@H](CO)O1` [didanosine]: the percent viability came out at 236%.

Take `Cc1ccccc1N1CCN(CCc2nnc3n2CCCC3)CC1` [dapiprazole]: the percent viability was 156%.

With `C=CCN1C(=O)C(CC(C)C)NC1=S` (stereo not drawn) [albutoin], the percent viability came out at 311%.

Regarding `CC(Oc1ccccc1)C(=O)N[C@@H]1C(=O)N2[C@@H]1SC(C)(C)[C@@H]2C(=O)O` (stereo partly drawn), the percent viability came to 201%.

On to `O=C(O)c1ccccc1NCCc1ccccc1` [enfenamic acid], for which the percent viability was 226%.

For the compound `CC(=O)O[C@]1(C(C)=O)CC[C@H]2[C@@H]3C=C(Cl)C4=CC(=O)CC[C@]4(C)[C@H]3CC[C@@]21C` [Chlormadinone Acetate], the percent viability turned out to be 73.9%.

Take `CCN1C(=O)NC(c2ccccc2)C1=O` (stereo not drawn) [ethotoin]: the percent viability is 164%.

With `NCC[C@H](O)C(=O)N[C@@H]1C[C@H](N)[C@@H](O[C@H]2O[C@H](CN)CC[C@H]2N)[C@H](O)[C@H]1O[C@H]1O[C@H](CO)[C@@H](O)[C@H](N)[C@H]1O` [arbekacin], the percent viability came to 274%.

As to `c1ccc(C(O[C@@H]2CCCN(CCc3ccc4c(c3)OCO4)C2)c2ccccc2)cc1` [zamifenacin], the percent viability turned out to be 148%.

Turning to `O=c1[nH]c(=O)n([C@H]2C[C@H](O)[C@@H](CO)O2)cc1F` [floxuridine], the percent viability is 238% and 183%.

Turning to `CO[C@H]1/C=C/O[C@@]2(C)Oc3c(C)c(O)c4c(O)c(c5c(nc6cc(C)ccn65)c4c3C2=O)NC(=O)/C(C)=C\C=C\[C@H](C)[C@H](O)[C@@H](C)[C@@H](O)[C@@H](C)[C@H](OC(C)=O)[C@@H]1C` [Xifaxan], the percent viability amounted to 246%.

As to `O=C(O)CCCN1CCC(O[C@@H](c2ccc(Cl)cc2)c2ccccn2)CC1` [Bepreve], the percent viability worked out at 216%.

Regarding `NC(CCC(=O)O)C(=O)O` (stereo not drawn), the percent viability was determined as 239%.

Regarding `CCCCN1CCC(CNC(=O)c2c3n(c4ccccc24)CCCO3)CC1` [piboserod], the percent viability came out at 89.9%.

With `COc1ccccc1O`, the percent viability was 355%.

Regarding `Cc1nc2c(C)cccn2c(=O)c1CCN1CCC(c2noc3cc(F)ccc23)CC1` [ocaperidone], the percent viability stood at 253%.

`CC(C)(Oc1ccc(Cl)cc1)C(=O)OCCOC(=O)c1cccnc1` [etofibrate]: the percent viability came out at 268%.
